For the experiment, the target named is FLAG-TRAF6 (UniProt Q9Y4K3). The experiment can be described thus: affinity purification with mass spectrometry; FLAG-TRAF6 stably expressed in TRAF6 KO HEK293 cells, stimulated with 10 µM ADP-heptose (20 min in the results, 15 min in the methods) or left untreated; extracts (1% Triton X-100, 100 mM iodoacetamide) on anti-FLAG M2 affinity gel 4 h at 4°C, washes with 300 mM NaCl, elution with 3X FLAG peptide; TMT quantification, enrichment after ADP-heptose.

By UniProt entry, the sequences of proteins in these tests, tags left out.
UniProt Q9Y4K3: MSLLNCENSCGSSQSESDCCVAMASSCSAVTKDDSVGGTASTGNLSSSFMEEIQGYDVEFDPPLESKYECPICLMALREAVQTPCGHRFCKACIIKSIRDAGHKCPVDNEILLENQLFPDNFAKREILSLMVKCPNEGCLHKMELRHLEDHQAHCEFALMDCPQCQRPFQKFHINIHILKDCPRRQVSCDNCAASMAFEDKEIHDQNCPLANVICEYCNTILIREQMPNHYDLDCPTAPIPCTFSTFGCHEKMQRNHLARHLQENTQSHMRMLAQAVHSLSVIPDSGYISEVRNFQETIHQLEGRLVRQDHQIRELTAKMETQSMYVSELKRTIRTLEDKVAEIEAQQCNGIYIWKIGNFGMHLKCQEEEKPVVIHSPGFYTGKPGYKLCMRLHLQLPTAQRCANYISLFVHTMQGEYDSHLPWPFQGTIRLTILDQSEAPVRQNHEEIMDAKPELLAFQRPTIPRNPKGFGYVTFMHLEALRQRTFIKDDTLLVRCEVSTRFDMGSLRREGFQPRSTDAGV
UniProt Q15025: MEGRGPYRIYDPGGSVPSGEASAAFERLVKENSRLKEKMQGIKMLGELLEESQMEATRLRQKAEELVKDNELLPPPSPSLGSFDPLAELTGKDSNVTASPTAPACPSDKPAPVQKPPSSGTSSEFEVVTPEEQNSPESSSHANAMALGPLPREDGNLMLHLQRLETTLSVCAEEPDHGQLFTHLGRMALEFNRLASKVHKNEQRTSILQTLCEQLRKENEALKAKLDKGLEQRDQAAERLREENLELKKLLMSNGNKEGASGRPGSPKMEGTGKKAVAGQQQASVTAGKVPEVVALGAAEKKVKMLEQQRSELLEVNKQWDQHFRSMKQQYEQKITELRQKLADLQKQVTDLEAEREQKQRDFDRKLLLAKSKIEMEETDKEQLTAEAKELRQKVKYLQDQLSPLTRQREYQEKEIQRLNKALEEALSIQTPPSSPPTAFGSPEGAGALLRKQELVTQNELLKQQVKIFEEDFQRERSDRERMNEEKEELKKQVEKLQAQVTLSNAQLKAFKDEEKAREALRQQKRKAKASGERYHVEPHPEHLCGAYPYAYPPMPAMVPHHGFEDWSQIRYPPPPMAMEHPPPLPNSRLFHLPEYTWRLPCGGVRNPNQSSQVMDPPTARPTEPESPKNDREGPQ
UniProt Q96EP0: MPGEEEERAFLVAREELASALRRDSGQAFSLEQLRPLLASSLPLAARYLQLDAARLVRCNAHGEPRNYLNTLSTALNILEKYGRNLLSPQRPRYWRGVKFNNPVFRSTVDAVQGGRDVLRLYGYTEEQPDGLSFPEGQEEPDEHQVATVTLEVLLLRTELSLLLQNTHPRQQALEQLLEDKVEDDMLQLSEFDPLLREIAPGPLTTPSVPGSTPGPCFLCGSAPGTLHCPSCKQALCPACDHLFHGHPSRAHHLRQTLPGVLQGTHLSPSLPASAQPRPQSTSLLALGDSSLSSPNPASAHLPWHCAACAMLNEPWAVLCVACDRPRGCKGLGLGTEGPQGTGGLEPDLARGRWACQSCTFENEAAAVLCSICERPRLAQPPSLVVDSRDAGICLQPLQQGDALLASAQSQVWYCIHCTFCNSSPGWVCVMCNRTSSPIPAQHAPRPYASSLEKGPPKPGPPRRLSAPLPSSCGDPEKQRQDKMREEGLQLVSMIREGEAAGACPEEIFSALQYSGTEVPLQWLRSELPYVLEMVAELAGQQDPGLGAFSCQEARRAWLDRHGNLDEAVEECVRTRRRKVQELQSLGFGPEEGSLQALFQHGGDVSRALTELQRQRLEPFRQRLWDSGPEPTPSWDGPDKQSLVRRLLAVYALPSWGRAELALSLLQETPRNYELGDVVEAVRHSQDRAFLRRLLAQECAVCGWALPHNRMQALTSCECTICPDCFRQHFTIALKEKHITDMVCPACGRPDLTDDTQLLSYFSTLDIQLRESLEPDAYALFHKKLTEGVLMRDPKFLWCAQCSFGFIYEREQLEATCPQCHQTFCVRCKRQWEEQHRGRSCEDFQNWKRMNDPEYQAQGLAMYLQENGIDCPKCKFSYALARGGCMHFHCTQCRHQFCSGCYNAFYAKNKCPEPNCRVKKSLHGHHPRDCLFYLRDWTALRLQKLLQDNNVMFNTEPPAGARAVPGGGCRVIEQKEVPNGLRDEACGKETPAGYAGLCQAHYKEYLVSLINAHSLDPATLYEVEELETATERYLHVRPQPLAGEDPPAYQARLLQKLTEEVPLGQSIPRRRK
UniProt Q9BYM8: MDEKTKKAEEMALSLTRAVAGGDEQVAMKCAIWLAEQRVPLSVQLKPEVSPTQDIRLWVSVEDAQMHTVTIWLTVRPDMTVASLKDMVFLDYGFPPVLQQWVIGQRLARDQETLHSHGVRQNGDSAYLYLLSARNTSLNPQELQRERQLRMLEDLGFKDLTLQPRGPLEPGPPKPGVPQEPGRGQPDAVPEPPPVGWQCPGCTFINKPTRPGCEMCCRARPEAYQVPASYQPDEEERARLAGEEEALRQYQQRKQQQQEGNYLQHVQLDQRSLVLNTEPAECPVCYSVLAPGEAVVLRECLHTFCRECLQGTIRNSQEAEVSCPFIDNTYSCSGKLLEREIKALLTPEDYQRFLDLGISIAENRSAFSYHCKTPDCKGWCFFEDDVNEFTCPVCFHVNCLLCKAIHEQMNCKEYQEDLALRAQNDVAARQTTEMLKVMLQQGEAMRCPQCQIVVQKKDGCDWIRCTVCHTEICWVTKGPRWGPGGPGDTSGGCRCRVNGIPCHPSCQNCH

Results are given in words; binding and its absence hold for the method and conditions named. In cells and extracts the contact can be indirect. Here binding means that the protein was enriched with, or labelled near, the bait; the list need not be complete.

With “ABIN1 (A20-binding inhibitor of NF-κB) (from UniProt Q15025 1-636)”, the binding result is “binds”.

On to HOIP (from UniProt Q96EP0 1-1072), for which the binding result is on record as “binds”.

HOIL-1 (from UniProt Q9BYM8 1-510): the binding result is on record as “binds”.

B1: TAK1 (protein, UniProt O43318 1-606)
chain: MSTASAASSSSSSSAGEMIEAPSQVLNFEEIDYKEIEVEEVVGRGAFGVVCKAKWRAKDVAIKQIESESERKAFIVELRQLSRVNHPNIVKLYGACLNPVCLVMEYAEGGSLYNVLHGAEPLPYYTAAHAMSWCLQCSQGVAYLHSMQPKALIHRDLKPPNLLLVAGGTVLKICDFGTACDIQTHMTNNKGSAAWMAPEVFEGSNYSEKCDVFSWGIILWEVITRRKPFDEIGGPAFRIMWAVHNGTRPPLIKNLPKPIESLMTRCWSKDPSQRPSMEEIVKIMTHLMRYFPGADEPLQYPCQYSDEGQSNSATSTGSFMDIASTNTSNKSDTNMEQVPATNDTIKRLESKLLKNQAKQQSESGRLSLGASRGSSVESLPPTSEGKRMSADMSEIEARIAATTAYSKPKRGHRKTASFGNILDVPEIVISGNGQPRRRSIQDLTVTGTEPGQVSSRSSSPSVRMITTSGPTSEKPTRSHPWTPDDSTDTNGSDNSIPMAYLTLDHQLQPLAPCPNSKESMAVFEQHCKMAQEYMKVQTEIALLLQRKQELVAELDQDEKDQQNTSRLVQEHKKLLDENKSLSTYYQQCKKQLEVIRSQQQKRQGTS
For B1, the binding result is listed as “binds”.

B2: TAB1 (protein, UniProt Q15750 1-504)
chain: MAAQRRSLLQSEQQPSWTDDLPLCHLSGVGSASNRSYSADGKGTESHPPEDSWLKFRSENNCFLYGVFNGYDGNRVTNFVAQRLSAELLLGQLNAEHAEADVRRVLLQAFDVVERSFLESIDDALAEKASLQSQLPEGVPQHQLPPQYQKILERLKTLEREISGGAMAVVAVLLNNKLYVANVGTNRALLCKSTVDGLQVTQLNVDHTTENEDELFRLSQLGLDAGKIKQVGIICGQESTRRIGDYKVKYGYTDIDLLSAAKSKPIIAEPEIHGAQPLDGVTGFLVLMSEGLYKALEAAHGPGQANQEIAAMIDTEFAKQTSLDAVAQAVVDRVKRIHSDTFASGGERARFCPRHEDMTLLVRNFGYPLGEMSQPTPSPAPAAGGRVYPVSVPYSSAQSTSKTSVTLSLVMPSQGQMVNGAHSASTLDEATPTLTNQSPTLTLQSTNTHTQSSSSSSDGGLFRSRPAHSLPPGEDGRVEPYVDFAEFYRLWSVDHGEQSVVTAP
With B2, the binding entry was “binds”.

B3: TAB3 (protein, UniProt Q8N5C8 1-712)
chain: MAQSSPQLDIQVLHDLRQRFPEIPEGVVSQCMLQNNNNLEACCRALSQESSKYLYMEYHSPDDNRMNRNRLLHINLGIHSPSSYHPGDGAQLNGGRTLVHSSSDGHIDPQHAAGKQLICLVQEPHSAPAVVAATPNYNPFFMNEQNRSAATPPSQPPQQPSSMQTGMNPSAMQGPSPPPPPPSYMHIPRYSTNPITVTVSQNLPSGQTVPRALQILPQIPSNLYGSPGSIYIRQTSQSSSGRQTPQSTPWQSSPQGPVPHYSQRPLPVYPHQQNYQPSQYSPKQQQIPQSAYHSPPPSQCPSPFSSPQHQVQPSQLGHIFMPPSPSTTPPHPYQQGPPSYQKQGSHSVAYLPYTASSLSKGSMKKIEITVEPSQRPGTAINRSPSPISNQPSPRNQHSLYTATTPPSSSPSRGISSQPKPPFSVNPVYITYTQPTGPSCTPSPSPRVIPNPTTVFKITVGRATTENLLNLVDQEERSAAPEPIQPISVIPGSGGEKGSHKYQRSSSSGSDDYAYTQALLLHQRARMERLAKQLKLEKEELERLKSEVNGMEHDLMQRRLRRVSCTTAIPTPEEMTRLRSMNRQLQINVDCTLKEVDLLQSRGNFDPKAMNNFYDNIEPGPVVPPKPSKKDSSDPCTIERKARRISVTSKVQADIHDTQAAAADEHRTGSTQSPRTQPRDEDYEGAPWNCDSCTFLNHPALNRCEQCEMPRYT
B3: the binding result is “binds”.

B4: TAB2 (protein, UniProt Q9NYJ8 1-693)
chain: MAQGSHQIDFQVLHDLRQKFPEVPEVVVSRCMLQNNNNLDACCAVLSQESTRYLYGEGDLNFSDDSGISGLRNHMTSLNLDLQSQNIYHHGREGSRMNGSRTLTHSISDGQLQGGQSNSELFQQEPQTAPAQVPQGFNVFGMSSSSGASNSAPHLGFHLGSKGTSSLSQQTPRFNPIMVTLAPNIQTGRNTPTSLHIHGVPPPVLNSPQGNSIYIRPYITTPGGTTRQTQQHSGWVSQFNPMNPQQVYQPSQPGPWTTCPASNPLSHTSSQQPNQQGHQTSHVYMPISSPTTSQPPTIHSSGSSQSSAHSQYNIQNISTGPRKNQIEIKLEPPQRNNSSKLRSSGPRTSSTSSSVNSQTLNRNQPTVYIAASPPNTDELMSRSQPKVYISANAATGDEQVMRNQPTLFISTNSGASAASRNMSGQVSMGPAFIHHHPPKSRAIGNNSATSPRVVVTQPNTKYTFKITVSPNKPPAVSPGVVSPTFELTNLLNHPDHYVETENIQHLTDPTLAHVDRISETRKLSMGSDDAAYTQALLVHQKARMERLQRELEIQKKKLDKLKSEVNEMENNLTRRRLKRSNSISQIPSLEEMQQLRSCNRQLQIDIDCLTKEIDLFQARGPHFNPSAIHNFYDNIGFVGPVPPKPKDQRSIIKTPKTQDTEDDEGAQWNCTACTFLNHPALIRCEQCEMPRHF
On to B4, for which the binding result was “binds”.

B5: HtrA2/Omi (protein, UniProt O43464 134-458)
chain: AVPSPPPASPRSQYNFIADVVEKTAPAVVYIEILDRHPFLGREVPISNGSGFVVAADGLIVTNAHVVADRRRVRVRLLSGDTYEAVVTAVDPVADIATLRIQTKEPLPTLPLGRSADVRQGEFVVAMGSPFALQNTITSGIVSSAQRPARDLGLPQTNVEYIQTDAAIDFGNSGGPLVNLDGEVIGVNTMKVTAGISFAIPSDRLREFLHRGEKKNSSSGISGSQRRYIGVMMLTLSPSILAELQLREPSFPDVQHGVLIHKVILGSPAHRAGLRPGDVILAIGEQMVQNAEDVYEAVRTQSQLAVQIRRGRETLTLYVTPEVTE
As to B5, the binding result is “binds”.

B6: Sharpin (protein, UniProt Q9H0F6 1-387)
chain: MAPPAGGAAAAASDLGSAAVLLAVHAAVRPLGAGPDAEAQLRRLQLSADPERPGRFRLELLGAGPGAVNLEWPLESVSYTIRGPTQHELQPPPGGPGTLSLHFLNPQEAQRWAVLVRGATVEGQNGSKSNSPPALGPEACPVSLPSPPEASTLKGPPPEADLPRSPGNLTEREELAGSLARAIAGGDEKGAAQVAAVLAQHRVALSVQLQEACFPPGPIRLQVTLEDAASAASAASSAHVALQVHPHCTVAALQEQVFSELGFPPAVQRWVIGRCLCVPERSLASYGVRQDGDPAFLYLLSAPREAPATGPSPQHPQKMDGELGRLFPPSLGLPPGPQPAASSLPSPLQPSWSCPSCTFINAPDRPGCEMCSTQRPCTWDPLAAAST
In the case of B6, the binding result was “binds”.

B7: IKKβ (protein, UniProt O14920 1-756)
chain: MSWSPSLTTQTCGAWEMKERLGTGGFGNVIRWHNQETGEQIAIKQCRQELSPRNRERWCLEIQIMRRLTHPNVVAARDVPEGMQNLAPNDLPLLAMEYCQGGDLRKYLNQFENCCGLREGAILTLLSDIASALRYLHENRIIHRDLKPENIVLQQGEQRLIHKIIDLGYAKELDQGSLCTSFVGTLQYLAPELLEQQKYTVTVDYWSFGTLAFECITGFRPFLPNWQPVQWHSKVRQKSEVDIVVSEDLNGTVKFSSSLPYPNNLNSVLAERLEKWLQLMLMWHPRQRGTDPTYGPNGCFKALDDILNLKLVHILNMVTGTIHTYPVTEDESLQSLKARIQQDTGIPEEDQELLQEAGLALIPDKPATQCISDGKLNEGHTLDMDLVFLFDNSKITYETQISPRPQPESVSCILQEPKRNLAFFQLRKVWGQVWHSIQTLKEDCNRLQQGQRAAMMNLLRNNSCLSKMKNSMASMSQQLKAKLDFFKTSIQIDLEKYSEQTEFGITSDKLLLAWREMEQAVELCGRENEVKLLVERMMALQTDIVDLQRSPMGRKQGGTLDDLEEQARELYRRLREKPRDQRTEGDSQEMVRLLLQAIQSFEKKVRVIYTQLSKTVVCKQKALELLPKVEEVVSLMNEDEKTVVRLQEKRQKELWNLLKIACSKVRGPVSGSPDSMNASRLSQPGQLMSQPSTASNSLPEPAKKSEELVAEAHNLCTLLENAIQDTVREQDQSFTALDWSWLQTEEEEHSCLEQAS
Take B7: the binding result is recorded as “binds”.

B8: TIFA (protein, UniProt Q96CG3 1-184)
chain: MTSFEDADTEETVTCLQMTVYHPGQLQCGIFQSISFNREKLPSSEVVKFGRNSNICHYTFQDKQVSRVQFSLQLFKKFNSSVLSFEIKNMSKKTNLIVDSRELGYLNKMDLPYRCMVRFGEYQFLMEKEDGESLEFFETQFILSPRSLLQENNWPPHRPIPEYGTYSLCSSQSSSPTEMDENES
For B8, the binding entry is “binds”.

The values above are taken from paper PMC9704527.
